Experimental data published in publication doi:10.1101/500082.
Results are given in words; binding and its absence hold for the method and conditions named. In cells and extracts the contact can be indirect. Some entries that bind do so weakly or less than the wild type. Where a sequence is shown, tags or fusion partners need not be part of it.

Tests used:
Assay in all cases: co-IP
[1] = target: T1, myc-VPS45 (human) (UniProt Q9NRW7)
T1 sequence: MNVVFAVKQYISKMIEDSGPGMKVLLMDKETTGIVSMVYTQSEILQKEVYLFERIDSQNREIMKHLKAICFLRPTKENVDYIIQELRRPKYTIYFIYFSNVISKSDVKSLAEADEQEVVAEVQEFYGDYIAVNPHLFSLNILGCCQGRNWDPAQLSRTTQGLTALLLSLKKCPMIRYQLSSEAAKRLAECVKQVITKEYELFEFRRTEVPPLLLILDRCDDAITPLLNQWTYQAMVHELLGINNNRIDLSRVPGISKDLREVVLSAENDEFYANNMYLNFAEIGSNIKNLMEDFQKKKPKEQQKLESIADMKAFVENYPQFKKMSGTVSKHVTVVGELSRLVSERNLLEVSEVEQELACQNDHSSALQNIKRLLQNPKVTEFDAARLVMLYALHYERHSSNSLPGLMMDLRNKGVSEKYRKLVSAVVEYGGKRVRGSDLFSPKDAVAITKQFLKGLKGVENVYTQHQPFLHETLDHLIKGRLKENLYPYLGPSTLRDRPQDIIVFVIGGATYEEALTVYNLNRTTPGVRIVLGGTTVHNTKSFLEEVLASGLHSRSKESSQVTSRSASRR

[2] = target: T2, VPS33B-Myc-DDK (human) (UniProt Q9H267)
T2 sequence: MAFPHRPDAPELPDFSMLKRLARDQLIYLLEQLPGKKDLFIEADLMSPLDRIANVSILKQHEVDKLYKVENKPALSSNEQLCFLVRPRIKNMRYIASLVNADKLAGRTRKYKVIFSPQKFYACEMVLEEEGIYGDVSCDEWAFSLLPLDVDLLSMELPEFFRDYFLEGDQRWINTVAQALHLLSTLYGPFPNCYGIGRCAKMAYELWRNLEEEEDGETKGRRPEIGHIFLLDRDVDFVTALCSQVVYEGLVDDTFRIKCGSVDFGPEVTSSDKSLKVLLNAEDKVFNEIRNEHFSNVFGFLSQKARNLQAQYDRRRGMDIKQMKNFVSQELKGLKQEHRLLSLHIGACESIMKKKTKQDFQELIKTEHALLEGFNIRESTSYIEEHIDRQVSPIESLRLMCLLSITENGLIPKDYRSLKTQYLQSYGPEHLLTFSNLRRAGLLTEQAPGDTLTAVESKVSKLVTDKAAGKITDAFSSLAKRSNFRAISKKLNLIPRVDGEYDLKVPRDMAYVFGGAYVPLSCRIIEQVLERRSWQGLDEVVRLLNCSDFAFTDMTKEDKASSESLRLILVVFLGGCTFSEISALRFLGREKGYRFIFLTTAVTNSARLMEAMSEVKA

[3] = target: T3, myc-Rabenosyn-5 (human) (UniProt Q9H1K0)
T3 sequence: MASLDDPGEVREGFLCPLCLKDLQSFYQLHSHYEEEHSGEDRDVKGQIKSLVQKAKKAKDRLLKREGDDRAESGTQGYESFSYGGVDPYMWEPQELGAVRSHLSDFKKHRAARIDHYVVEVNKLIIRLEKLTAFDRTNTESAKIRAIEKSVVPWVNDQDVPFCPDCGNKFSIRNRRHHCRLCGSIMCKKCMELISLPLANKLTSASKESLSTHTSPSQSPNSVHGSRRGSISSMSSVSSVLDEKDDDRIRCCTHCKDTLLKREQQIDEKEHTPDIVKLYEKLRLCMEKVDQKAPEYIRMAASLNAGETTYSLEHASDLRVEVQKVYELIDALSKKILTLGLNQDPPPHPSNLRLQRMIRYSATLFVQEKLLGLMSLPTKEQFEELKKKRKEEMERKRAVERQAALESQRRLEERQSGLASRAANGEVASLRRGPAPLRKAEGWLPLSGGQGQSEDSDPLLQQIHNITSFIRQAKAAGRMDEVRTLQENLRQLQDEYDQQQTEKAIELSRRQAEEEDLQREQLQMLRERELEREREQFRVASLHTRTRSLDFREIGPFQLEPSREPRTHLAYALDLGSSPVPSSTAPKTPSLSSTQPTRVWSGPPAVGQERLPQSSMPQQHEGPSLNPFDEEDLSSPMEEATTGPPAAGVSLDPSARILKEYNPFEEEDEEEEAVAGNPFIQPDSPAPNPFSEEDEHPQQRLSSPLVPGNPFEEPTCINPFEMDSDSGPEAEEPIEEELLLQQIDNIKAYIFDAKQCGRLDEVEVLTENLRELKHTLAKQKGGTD

- binding [1]: binds
- binding [2]: binds
- binding [3]: binds
B1: endogenous VIPAS39 (protein, UniProt Q9H9C1 1-493)
chain: MNRTKGDEEEYWNSSKFKAFTFDDEDDELSQLKESKRAVNSLRDFVDDDDDDDLERVSWSGEPVGSISWSIRETAGNSGSTHEGREQLKSRNSFSSYAQLPKPTSTYSLSSFFRGRTRPGSFQSLSDALSDTPAKSYAPELGRPKGEYRDYSNDWSPSDTVRRLRKGKVCSLERFRSLQDKLQLLEEAVSMHDGNVITAVLIFLKRTLSKEILFRELEVRQVALRHLIHFLKEIGDQKLLLDLFRFLDRTEELALSHYREHLNIQDPDKRKEFLKTCVGLPFSAEDSAHIQDHYTLLERQIIIEANDRHLESAGQTEIFRKHPRKASILNMPLVTTLFYSCFYHYTEAEGTFSSPVNLKKTFKIPDKQYVLTALAARAKLRAWNDVDALFTTKNWLGYTKKRAPIGFHRVVEILHKNNAPVQILQEYVNLVEDVDTKLNLATKFKCHDVVIDTYRDLKDRQQLLAYRSKVDKGSAEEEKIDALLSSSQIRWKN
